# No constants are given. Whether binding was seen depends on the method and setting. Binding seen in cells or lysates may run through a third protein. Some results given as binding are weak or reduced against the parent protein; the word gives no strength. Tags and fused reporters may be left off the sequences shown.
# B1: FLAG-tagged GpmA (enzyme, UniProt Q54NE6 1-249)
# chain: MVYKLVLIRHGESTWNKENKFTGWTDVDLSEKGVQEAHEAGKRLLKAGFTFDIAYTSVLKRAIRTLWILLEELNLYWIPVSRQWRLNERMYGSLQGLNKSETAAKYGEDQVLIWRRSYDIPPPALEESDERYPGNDPRYAKLDKSDLPKTECLKDTVERFLPLWNDTIAPTIKSGQKVLIAAHGNSIRALVKYLDNIADDKIVSMDIPTGIPLVYELDENLKPIKHYYLADESELNAAIQAVANQGKAK
# Biological target: T1, Ino1-RFP (Dictyostelium inositol-3-phosphate synthase with a C-terminal RFP tag) (Dictyostelium discoideum) (UniProt Q54N49)
# T1 sequence: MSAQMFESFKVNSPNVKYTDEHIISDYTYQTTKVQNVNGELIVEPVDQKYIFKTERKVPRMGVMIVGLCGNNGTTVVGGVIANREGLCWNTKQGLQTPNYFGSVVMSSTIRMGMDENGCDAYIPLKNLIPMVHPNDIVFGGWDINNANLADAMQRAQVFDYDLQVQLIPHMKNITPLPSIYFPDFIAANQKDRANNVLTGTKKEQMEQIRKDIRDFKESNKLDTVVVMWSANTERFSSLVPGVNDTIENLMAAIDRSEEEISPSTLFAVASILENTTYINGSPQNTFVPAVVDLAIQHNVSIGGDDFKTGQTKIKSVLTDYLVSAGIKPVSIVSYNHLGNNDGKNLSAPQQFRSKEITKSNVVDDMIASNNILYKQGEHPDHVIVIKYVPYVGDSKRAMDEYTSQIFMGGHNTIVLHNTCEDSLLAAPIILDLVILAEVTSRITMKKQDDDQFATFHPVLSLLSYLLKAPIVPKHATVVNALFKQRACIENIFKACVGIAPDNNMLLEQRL
# Experiment: co-IP; ino1- cells coexpressing Ino1-RFP and a FLAG-tagged protein; lysate on anti-RFP-coated (RFP-Trap) beads, 1 h at 4°C; Western blot with anti-RFP and anti-FLAG M2
binder,measurement,value
B1,binding,binds weakly

# From publication PMC4859692
